Measurements reported in PubChem BioAssay AID1259308 (NCATS, 2017).
The whole screen tested about 59,000 reagents; this is a part drawn at random. About 1,510 of all reagents (2.6%) were called active. 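Calls use total luciferase alone and ignore viability, so some active siRNAs may act by altering cell number.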 Reagents against one gene are numbered here.

- Purpose: 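Candidate targets for better recombinant protein yield in mammalian cells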 (primary screen)
- Cells: human HEK293 embryonic kidney cells stably expressing firefly luciferase (HEK-CMV-Luc2-Hygro)
- Knock-down reagent: single siRNA against human genes, 0.8 pmol siRNA per well
- Time to read-out: 72 h
- Detection: 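Luciferase light (ONE-Glo) measured on one replicate plate set and viability (CellTiter-Glo) on the other, scaled to a negative control siRNA, with robust z-scores and luciferase per cell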
- Reading the numbers: total luciferase, z-score and total luciferase, % of control: higher = more reporter protein produced; luciferase per cell, z-score: higher = more reporter output per viable cell; viable cells, % of control: higher = more viable cells
- Active means: 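Active when the median/MAD z-score for overall luciferase is greater than 3; a gene was taken forward for validation with new siRNAs if at least two of its three siRNAs passed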
- Meaning of the calls: active = raised luciferase; inactive = no rise

gene | siRNA no. | total luciferase, z-score | total luciferase, % of control | luciferase per cell, z-score | viable cells, % of control | call
RPS16P5 | 1 | -0.643 | 69.1 | 0.0237 | 76.7 | inactive
RPS16P5 | 2 | 2.48 | 131 | 1.49 | 99 | inactive
RPS16P5 | 3 | -0.407 | 73.8 | -1.02 | 108 | inactive
SNAI3 | 1 | 0.52 | 92.2 | 0.94 | 80.5 | inactive
SNAI3 | 2 | 0.286 | 87.6 | 0.348 | 89.3 | inactive
SNAI3 | 3 | -1.49 | 52.3 | -1.64 | 90.1 | inactive
ARF5 | 1 | 1.37 | 109 | 0.41 | 109 | inactive
ARF5 | 2 | 0.57 | 93.2 | 0.0804 | 102 | inactive
ARF5 | 3 | 0.0726 | 83.3 | -0.926 | 119 | inactive
BEND3 | 1 | 0.382 | 89.5 | 0.342 | 91.4 | inactive
BEND3 | 2 | 1.37 | 109 | 1.35 | 85.5 | inactive
BEND3 | 3 | 0.444 | 90.7 | -0.413 | 113 | inactive
DORIP1 | 1 | 0.146 | 84.8 | -0.494 | 108 | inactive
DORIP1 | 2 | -0.0408 | 81.1 | 0.522 | 79 | inactive
DORIP1 | 3 | 0.815 | 98.1 | -0.254 | 117 | inactive
RBM22 | 1 | 4.12 | 164 | 4 | 63.9 | active
RBM22 | 2 | 3.52 | 152 | 3.29 | 71.4 | active
RBM22 | 3 | -0.062 | 80.7 | 0.854 | 72 | inactive
GSK3B | 1 | 1.14 | 105 | 1.46 | 79.6 | inactive
GSK3B | 2 | 0.251 | 86.9 | 0.0414 | 96 | inactive
GSK3B | 3 | -1.24 | 57.2 | -1.18 | 87.1 | inactive
EXOSC9 | 1 | -1.37 | 54.7 | -0.582 | 71.2 | inactive
EXOSC9 | 2 | -2.12 | 39.7 | -1.2 | 60.8 | inactive
EXOSC9 | 3 | 1.5 | 112 | 1.03 | 95.3 | inactive
LRTM3 | 1 | -0.624 | 69.5 | 0.468 | 68.6 | inactive
LRTM3 | 2 | 0.39 | 89.6 | -0.0802 | 102 | inactive
LRTM3 | 3 | -0.576 | 70.4 | -0.274 | 84.6 | inactive
LRTM3 | 4 | 0.653 | 94.9 | 1.12 | 79 | inactive
LRTM3 | 5 | 2.09 | 124 | 1.83 | 85.1 | inactive
LRTM3 | 6 | 0.79 | 97.6 | 0.133 | 105 | inactive
KCTD2 | 1 | -0.207 | 77.8 | 0.464 | 76.9 | inactive
KCTD2 | 2 | -1.06 | 60.9 | -0.2 | 71.7 | inactive
KCTD2 | 3 | -1.62 | 49.7 | -1.57 | 83.9 | inactive
SIRPB1 | 1 | -0.0381 | 81.1 | 0.161 | 86.9 | inactive
SIRPB1 | 2 | 1.93 | 120 | 1.47 | 91.3 | inactive
SIRPB1 | 3 | -2.43 | 33.5 | -1.25 | 52 | inactive
GRB10 | 1 | 0.302 | 87.9 | 0.208 | 93 | inactive
GRB10 | 2 | -1.43 | 53.4 | -0.832 | 74.3 | inactive
GRB10 | 3 | -1.23 | 57.3 | -1.14 | 86.4 | inactive
ACOX3 | 1 | 0.286 | 87.6 | 0.071 | 96 | inactive
ACOX3 | 2 | 0.957 | 101 | 0.108 | 110 | inactive
ACOX3 | 3 | -1.16 | 58.7 | -2.06 | 113 | inactive
STAB1 | 1 | 2.25 | 127 | 1.38 | 98.2 | inactive
STAB1 | 2 | 1.59 | 114 | 0.882 | 101 | inactive
STAB1 | 3 | 3.05 | 143 | 1.91 | 96.4 | active
SPMAP2 | 1 | 0.53 | 92.4 | -0.0391 | 104 | inactive
SPMAP2 | 2 | -0.63 | 69.4 | -0.514 | 88.7 | inactive
SPMAP2 | 3 | -1.02 | 61.6 | -0.838 | 85.8 | inactive
TNFAIP2 | 1 | -0.672 | 68.5 | -0.385 | 84.7 | inactive
TNFAIP2 | 2 | 0.112 | 84.1 | 0.63 | 79.6 | inactive
TNFAIP2 | 3 | 1.14 | 105 | 1.4 | 80.9 | inactive
NUP37 | 1 | -0.265 | 76.6 | -0.287 | 92.3 | inactive
NUP37 | 2 | -0.522 | 71.5 | -0.521 | 91.6 | inactive
NUP37 | 3 | -0.355 | 74.8 | 0.206 | 79.2 | inactive
DCUN1D5 | 1 | -0.462 | 72.7 | -0.689 | 97.4 | inactive
DCUN1D5 | 2 | -0.142 | 79.1 | 0.286 | 82 | inactive
DCUN1D5 | 3 | -1.28 | 56.5 | 2.48 | 32.8 | inactive

Records listed so far marked active, once more:
gene | siRNA no. | total luciferase, z-score | total luciferase, % of control | luciferase per cell, z-score | viable cells, % of control | call
RBM22 | 1 | 4.12 | 164 | 4 | 63.9 | active
RBM22 | 2 | 3.52 | 152 | 3.29 | 71.4 | active
STAB1 | 3 | 3.05 | 143 | 1.91 | 96.4 | active
